Experimental data from the supplement of paper PMC12282887.
Values are raw readings; no control value is given beside them.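 The top concentration was set near the MIC for antimicrobials, at 500 µM for most other compounds, and up to 1 mM for known inducer-like compounds. Deletion strains started from a tenfold smaller inoculum, and wells growing below 10% of the overall median were treated as non-growing.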

Test system: Escherichia coli BW25113
Test: growth (OD600 area under curve, 8 h) (OD600 x h); higher = more growth
Method: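 E. coli BW25113 reporter strains (wild type, ΔmarA, ΔsoxS, Δrob, each carrying one of 8 lux reporter plasmids) were grown in 40 µl LB in 384-well plates at 37°C, 800 rpm, with each compound at 4 two-fold concentrations, in biological duplicates. Growth is the baseline-corrected OD600 area under the curve over 8 h (0-8 h WT, 1-9 h deletion strains).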

CCN(CC)CCOC(=O)c1ccc(N)cc1 [Procaine]
growth
Conditions	reporter plasmid: EVC	reporter plasmid: acrABp	reporter plasmid: marRABp	reporter plasmid: micFp	reporter plasmid: ompFp	reporter plasmid: robp	reporter plasmid: soxSp	reporter plasmid: tolCp
1329.2 µg/ml, genetic background: wild type	2.13	2.39	2.49	2.4	2.11	2.15	1.89	2.3
1329.2 µg/ml, genetic background: ΔmarA	2.39	3.05	2.4	2.45	2.3	2.7	1.63	2.13
1329.2 µg/ml, genetic background: Δrob	1.94	2.43	2.47	2.02	1.65	1.83	1.41	2.25
1329.2 µg/ml, genetic background: ΔsoxS	2.04	2.26	2.5	1.75	1.81	2.074	2.04	2.24
2658.5 µg/ml, genetic background: wild type	1.8	2.34	2.31	1.89	1.9	1.8	1.69	2.12
2658.5 µg/ml, genetic background: ΔmarA	2.04	2.59	2.24	1.77	2.08	2.58	1.33	1.81
2658.5 µg/ml, genetic background: Δrob	1.69	2.2	2.22	1.59	1.25	1.39	1.05	1.89
2658.5 µg/ml, genetic background: ΔsoxS	1.54	1.91	2.12	1.18	1.56	1.93	1.54	1.71
5317 µg/ml, genetic background: wild type	1.49	1.86	1.83	1.42	1.54	1.49	1.33	1.837
5317 µg/ml, genetic background: ΔmarA	1.38	1.6	1.63	1.66	1.584	1.72	0.88	1.23
5317 µg/ml, genetic background: Δrob	1.19	1.48	1.63	1.14	0.89	1.09	0.708	1.38
5317 µg/ml, genetic background: ΔsoxS	1.05	1.68	1.67	0.765	1.077	1.19	0.903	1.35
10634 µg/ml, genetic background: wild type	0.996	1.55	1.46	0.906	1.41	1.4	0.958	1.1
10634 µg/ml, genetic background: ΔmarA	0.745	1.47	1.35	0.598	1.11	1.3	0.638	0.507
10634 µg/ml, genetic background: Δrob	0.451	1.24	1.09	0.344	0.689	0.726	0.301	0.44
10634 µg/ml, genetic background: ΔsoxS	0.487	1.54	1.29	0.351	0.966	1.23	0.563	0.373

CC(=O)[C@H]1CC[C@H]2[C@@H]3CCC4=CC(=O)CC[C@]4(C)[C@H]3CC[C@]12C [Progesterone]
growth
Conditions	reporter plasmid: EVC	reporter plasmid: acrABp	reporter plasmid: marRABp	reporter plasmid: micFp	reporter plasmid: ompFp	reporter plasmid: robp	reporter plasmid: soxSp	reporter plasmid: tolCp
19.7 µg/ml, genetic background: wild type	2.88	2.93	3.07	3.16	2.94	2.92	3.12	3.19
19.7 µg/ml, genetic background: ΔmarA	3.07	4.22	3.45	3.24	3.43	3.58	3.13	2.99
19.7 µg/ml, genetic background: Δrob	3.15	3	3.4	3	2.36	2.75	2.67	3.19
19.7 µg/ml, genetic background: ΔsoxS	3.37	3.61	3.25	2.79	2.74	3.14	3.08	3.3
39.3 µg/ml, genetic background: wild type	2.697	3.33	3.29	3.2	2.96	2.93	2.91	3
39.3 µg/ml, genetic background: ΔmarA	3.01	4.18	3.44	3.09	3.42	3.66	2.89	2.94
39.3 µg/ml, genetic background: Δrob	2.7	2.97	3.31	2.67	2.16	2.58	2.6033	2.9361
39.3 µg/ml, genetic background: ΔsoxS	3.14	3.33	3.19	2.63	2.87	3.08	2.96	3.11
78.6 µg/ml, genetic background: wild type	2.98	2.88	3.12	3.174	3.09	2.8654	2.9	3.02
78.6 µg/ml, genetic background: ΔmarA	3.07	4.09	3.569	3.36	3.63	3.92	2.81	2.93
78.6 µg/ml, genetic background: Δrob	2.94	3.21	3.49	3.22	2.5	2.83	2.71	3.06
78.6 µg/ml, genetic background: ΔsoxS	3.26	3.35	3.62	2.94	3.15	3.27	3.1	3.14
157.2 µg/ml, genetic background: wild type	2.97	2.83	2.98	3.09	3.07	2.89	2.55	2.87
157.2 µg/ml, genetic background: ΔmarA	3.05	3.72	3.29	3.27	3.57	3.85	2.73	2.88
157.2 µg/ml, genetic background: Δrob	2.66	2.57	3.34	2.94	2.67	2.65	2.74	2.86
157.2 µg/ml, genetic background: ΔsoxS	3.02	2.68	3.3	2.77	2.95	3.16	3.05	3.1
